Laboratory results published in the supplement of paper PMC6411743.
± gives the standard deviation of the averaged measurements. This is a selection; strong and weak results do not stand in their true shares. Most values lie at the level of the controls, where differences are scatter.

Protein sequences, listed by entry. Tags and fused reporters are not part of them. Lines headed by an entry give the natural chain unless they say otherwise; changes in a name come on top.
UniProt O00116: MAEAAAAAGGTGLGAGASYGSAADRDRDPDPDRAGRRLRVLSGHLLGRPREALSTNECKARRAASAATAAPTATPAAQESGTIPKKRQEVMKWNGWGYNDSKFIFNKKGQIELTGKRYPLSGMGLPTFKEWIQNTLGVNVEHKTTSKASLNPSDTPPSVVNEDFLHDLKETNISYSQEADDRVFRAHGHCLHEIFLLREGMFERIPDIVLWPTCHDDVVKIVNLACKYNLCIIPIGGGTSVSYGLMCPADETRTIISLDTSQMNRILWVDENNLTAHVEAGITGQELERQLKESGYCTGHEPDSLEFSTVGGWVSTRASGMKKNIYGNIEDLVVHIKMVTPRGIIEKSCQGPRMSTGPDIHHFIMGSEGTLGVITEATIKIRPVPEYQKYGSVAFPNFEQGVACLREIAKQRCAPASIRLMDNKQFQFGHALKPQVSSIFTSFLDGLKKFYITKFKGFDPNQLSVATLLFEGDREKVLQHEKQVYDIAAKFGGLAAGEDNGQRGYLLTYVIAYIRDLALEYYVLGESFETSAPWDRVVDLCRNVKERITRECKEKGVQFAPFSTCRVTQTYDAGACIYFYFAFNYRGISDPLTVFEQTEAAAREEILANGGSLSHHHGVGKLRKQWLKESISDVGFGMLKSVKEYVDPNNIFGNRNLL
UniProt O15234, whole entry: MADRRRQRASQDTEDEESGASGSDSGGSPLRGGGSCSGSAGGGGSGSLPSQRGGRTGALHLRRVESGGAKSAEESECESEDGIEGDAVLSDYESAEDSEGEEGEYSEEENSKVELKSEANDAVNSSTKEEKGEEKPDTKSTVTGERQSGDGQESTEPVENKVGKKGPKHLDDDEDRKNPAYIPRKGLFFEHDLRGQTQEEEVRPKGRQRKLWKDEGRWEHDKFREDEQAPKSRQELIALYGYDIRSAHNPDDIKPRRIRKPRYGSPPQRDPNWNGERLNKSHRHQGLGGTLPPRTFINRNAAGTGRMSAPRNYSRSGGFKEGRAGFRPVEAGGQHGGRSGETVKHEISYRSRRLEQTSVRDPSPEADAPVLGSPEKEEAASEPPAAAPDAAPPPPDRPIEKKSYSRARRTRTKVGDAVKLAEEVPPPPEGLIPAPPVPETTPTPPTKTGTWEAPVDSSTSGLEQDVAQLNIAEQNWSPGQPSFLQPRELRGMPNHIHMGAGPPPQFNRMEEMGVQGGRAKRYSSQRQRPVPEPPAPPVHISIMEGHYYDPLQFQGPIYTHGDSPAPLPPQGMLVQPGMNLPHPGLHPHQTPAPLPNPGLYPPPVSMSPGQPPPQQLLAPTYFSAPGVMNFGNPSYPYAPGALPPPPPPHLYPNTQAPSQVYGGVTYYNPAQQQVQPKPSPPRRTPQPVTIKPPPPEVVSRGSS
UniProt O43633: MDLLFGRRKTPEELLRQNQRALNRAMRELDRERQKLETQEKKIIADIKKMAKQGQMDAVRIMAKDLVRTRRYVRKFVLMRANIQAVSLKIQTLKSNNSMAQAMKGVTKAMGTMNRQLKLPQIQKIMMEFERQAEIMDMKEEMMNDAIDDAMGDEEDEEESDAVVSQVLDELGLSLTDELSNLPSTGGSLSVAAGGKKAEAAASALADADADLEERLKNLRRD
UniProt O15127: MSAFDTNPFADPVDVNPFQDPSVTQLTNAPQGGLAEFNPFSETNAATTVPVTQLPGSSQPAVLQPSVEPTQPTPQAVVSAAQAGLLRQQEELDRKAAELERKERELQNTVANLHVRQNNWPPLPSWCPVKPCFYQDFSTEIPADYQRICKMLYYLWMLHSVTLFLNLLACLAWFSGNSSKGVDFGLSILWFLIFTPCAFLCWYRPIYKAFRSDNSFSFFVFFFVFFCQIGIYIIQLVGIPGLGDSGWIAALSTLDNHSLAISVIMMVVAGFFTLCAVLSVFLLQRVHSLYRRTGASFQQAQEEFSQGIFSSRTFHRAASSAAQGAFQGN
UniProt O00522: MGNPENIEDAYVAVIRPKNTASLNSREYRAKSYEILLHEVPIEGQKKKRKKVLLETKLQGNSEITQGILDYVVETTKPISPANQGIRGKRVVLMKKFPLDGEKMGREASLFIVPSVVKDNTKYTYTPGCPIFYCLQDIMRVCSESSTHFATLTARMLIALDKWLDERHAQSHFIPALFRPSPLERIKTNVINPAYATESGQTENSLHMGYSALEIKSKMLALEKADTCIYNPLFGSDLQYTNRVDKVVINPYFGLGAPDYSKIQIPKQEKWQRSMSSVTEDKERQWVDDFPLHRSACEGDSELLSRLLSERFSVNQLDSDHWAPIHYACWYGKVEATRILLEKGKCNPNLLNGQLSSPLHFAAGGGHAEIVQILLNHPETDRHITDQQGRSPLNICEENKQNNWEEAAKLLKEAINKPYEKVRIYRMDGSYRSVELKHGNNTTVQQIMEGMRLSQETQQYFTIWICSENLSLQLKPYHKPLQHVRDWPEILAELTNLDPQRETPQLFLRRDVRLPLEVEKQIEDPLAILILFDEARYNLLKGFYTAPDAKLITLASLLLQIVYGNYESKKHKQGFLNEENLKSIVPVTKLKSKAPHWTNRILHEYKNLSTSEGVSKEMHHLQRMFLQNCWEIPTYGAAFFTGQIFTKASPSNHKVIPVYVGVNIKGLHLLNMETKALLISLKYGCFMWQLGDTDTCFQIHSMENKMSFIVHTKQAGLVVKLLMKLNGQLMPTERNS
UniProt O15118: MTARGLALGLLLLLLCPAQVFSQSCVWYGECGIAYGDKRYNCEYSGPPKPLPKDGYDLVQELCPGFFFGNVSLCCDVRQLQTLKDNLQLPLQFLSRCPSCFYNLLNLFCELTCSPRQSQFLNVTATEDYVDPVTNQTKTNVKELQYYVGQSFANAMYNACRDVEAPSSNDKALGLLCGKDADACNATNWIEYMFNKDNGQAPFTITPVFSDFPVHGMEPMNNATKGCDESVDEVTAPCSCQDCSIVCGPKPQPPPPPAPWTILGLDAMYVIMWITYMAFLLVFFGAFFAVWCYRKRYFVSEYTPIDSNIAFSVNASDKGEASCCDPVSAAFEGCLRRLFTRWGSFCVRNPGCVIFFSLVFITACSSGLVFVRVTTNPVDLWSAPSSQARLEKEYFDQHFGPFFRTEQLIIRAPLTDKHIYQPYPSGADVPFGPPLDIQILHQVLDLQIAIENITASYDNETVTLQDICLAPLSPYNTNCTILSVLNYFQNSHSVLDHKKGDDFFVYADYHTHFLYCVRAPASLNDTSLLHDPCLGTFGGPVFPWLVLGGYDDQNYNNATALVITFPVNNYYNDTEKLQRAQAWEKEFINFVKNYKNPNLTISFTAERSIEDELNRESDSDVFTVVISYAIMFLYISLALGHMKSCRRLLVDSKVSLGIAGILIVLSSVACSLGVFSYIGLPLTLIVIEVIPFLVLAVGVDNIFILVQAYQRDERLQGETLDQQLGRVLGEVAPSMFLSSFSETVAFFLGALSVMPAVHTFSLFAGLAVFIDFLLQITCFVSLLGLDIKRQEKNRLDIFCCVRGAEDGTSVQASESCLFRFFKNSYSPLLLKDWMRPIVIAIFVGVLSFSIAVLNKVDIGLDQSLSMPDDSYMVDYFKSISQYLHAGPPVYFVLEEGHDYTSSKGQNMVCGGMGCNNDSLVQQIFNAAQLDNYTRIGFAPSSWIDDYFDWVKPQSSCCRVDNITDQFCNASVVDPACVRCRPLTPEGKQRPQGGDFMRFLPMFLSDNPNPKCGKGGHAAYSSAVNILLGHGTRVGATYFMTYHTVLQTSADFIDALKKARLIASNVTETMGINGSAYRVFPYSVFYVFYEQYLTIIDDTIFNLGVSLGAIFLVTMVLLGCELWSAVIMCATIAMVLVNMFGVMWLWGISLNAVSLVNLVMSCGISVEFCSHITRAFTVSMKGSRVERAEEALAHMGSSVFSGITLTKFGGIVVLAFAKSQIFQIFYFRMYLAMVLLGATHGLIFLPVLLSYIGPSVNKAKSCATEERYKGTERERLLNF
UniProt O14936: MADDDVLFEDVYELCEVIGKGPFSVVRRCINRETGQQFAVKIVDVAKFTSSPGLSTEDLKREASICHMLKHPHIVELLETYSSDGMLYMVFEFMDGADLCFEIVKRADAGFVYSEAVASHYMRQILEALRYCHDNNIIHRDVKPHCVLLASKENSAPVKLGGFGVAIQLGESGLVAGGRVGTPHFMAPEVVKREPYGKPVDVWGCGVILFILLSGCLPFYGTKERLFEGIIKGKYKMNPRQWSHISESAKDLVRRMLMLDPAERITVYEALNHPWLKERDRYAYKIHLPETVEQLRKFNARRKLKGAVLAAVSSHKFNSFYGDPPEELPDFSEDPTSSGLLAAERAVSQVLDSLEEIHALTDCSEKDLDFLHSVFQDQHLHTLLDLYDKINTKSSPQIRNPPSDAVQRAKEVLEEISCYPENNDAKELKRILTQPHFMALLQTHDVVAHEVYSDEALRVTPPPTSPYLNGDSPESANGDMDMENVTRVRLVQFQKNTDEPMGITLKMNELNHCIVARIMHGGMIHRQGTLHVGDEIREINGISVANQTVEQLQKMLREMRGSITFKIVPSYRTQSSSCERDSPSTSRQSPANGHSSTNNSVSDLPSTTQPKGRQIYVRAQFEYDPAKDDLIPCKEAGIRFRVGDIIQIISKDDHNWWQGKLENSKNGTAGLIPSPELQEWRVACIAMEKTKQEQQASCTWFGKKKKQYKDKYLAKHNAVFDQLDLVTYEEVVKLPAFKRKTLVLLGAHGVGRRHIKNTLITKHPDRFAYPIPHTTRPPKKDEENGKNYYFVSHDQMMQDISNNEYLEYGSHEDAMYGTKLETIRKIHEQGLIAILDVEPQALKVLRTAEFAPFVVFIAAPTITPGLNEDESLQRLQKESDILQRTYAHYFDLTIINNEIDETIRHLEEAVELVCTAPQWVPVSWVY
UniProt P41567, whole entry: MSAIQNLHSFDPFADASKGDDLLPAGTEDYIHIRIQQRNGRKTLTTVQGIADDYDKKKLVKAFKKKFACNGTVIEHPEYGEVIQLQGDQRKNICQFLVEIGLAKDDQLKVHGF
UniProt Q86Y39: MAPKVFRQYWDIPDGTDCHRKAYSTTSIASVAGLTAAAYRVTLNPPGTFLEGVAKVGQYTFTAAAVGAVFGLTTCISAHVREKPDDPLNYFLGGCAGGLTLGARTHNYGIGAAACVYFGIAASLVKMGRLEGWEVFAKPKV
UniProt O00567: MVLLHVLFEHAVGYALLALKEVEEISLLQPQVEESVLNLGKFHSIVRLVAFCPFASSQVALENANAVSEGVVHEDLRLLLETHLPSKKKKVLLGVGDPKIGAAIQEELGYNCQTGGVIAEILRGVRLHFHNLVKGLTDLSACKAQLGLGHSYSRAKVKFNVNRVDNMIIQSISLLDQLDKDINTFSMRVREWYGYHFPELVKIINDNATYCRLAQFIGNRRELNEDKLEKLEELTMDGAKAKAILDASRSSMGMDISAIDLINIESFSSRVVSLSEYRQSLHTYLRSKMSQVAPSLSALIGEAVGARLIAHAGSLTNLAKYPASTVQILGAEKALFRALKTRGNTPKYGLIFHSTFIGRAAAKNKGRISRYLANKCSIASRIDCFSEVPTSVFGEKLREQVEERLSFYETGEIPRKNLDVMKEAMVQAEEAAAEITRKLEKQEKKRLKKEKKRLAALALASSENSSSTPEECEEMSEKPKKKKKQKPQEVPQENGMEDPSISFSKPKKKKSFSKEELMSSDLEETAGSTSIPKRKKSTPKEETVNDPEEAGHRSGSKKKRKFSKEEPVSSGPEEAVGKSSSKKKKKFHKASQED
UniProt O00151: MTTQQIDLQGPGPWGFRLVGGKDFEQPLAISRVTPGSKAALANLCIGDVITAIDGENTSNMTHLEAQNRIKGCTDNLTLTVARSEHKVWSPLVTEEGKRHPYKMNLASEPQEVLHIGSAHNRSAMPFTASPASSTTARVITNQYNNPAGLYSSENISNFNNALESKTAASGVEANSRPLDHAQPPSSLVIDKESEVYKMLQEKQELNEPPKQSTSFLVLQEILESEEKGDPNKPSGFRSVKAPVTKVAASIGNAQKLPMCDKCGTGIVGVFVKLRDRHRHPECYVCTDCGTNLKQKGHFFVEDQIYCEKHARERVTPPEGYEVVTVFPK
UniProt O60291: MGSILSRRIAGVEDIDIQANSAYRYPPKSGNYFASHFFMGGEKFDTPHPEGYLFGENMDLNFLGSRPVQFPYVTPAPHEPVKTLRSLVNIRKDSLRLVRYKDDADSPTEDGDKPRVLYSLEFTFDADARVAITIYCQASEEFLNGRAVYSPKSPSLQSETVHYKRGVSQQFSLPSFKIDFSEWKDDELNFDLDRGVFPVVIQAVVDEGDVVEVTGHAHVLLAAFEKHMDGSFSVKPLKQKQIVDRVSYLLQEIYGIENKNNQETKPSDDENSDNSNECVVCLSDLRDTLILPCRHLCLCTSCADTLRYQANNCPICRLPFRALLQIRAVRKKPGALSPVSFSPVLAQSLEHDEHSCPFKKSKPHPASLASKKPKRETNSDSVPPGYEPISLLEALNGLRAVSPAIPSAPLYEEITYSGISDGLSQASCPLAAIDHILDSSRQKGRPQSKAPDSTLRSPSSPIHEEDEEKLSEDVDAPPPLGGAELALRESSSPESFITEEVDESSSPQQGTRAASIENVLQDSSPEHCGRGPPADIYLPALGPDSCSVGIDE

Compound: Nc1ncnc2c1ncn2[C@@H]1O[C@H](COP(=O)(O)OP(=O)(O)NP(=O)(O)O)[C@@H](O)[C@H]1O [adenylyl imidodiphosphate]
Test: NP40-soluble protein abundance relative to vehicle (solubility fold change) (ratio); higher = more soluble protein in presence of AMP-PNP
In short: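 In three independent experiments, Jurkat crude lysate made by Dounce homogenisation was treated for 10 min at room temperature and then 3 min at 37 °C with eight concentrations ranging from 0.1 to 10 mM. It was then solubilised with 0.8% NP40 plus benzonase for 60 min at 4 °C and ultracentrifuged. The supernatant was TMT-labelled for LC-MS/MS, and each value is the fold change against the detergent-processed vehicle for the same replicate, using vsn-normalised intensities.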

Target	NP40-soluble protein abundance (concentration: 0.1mM)	NP40-soluble protein abundance (concentration: 0.5mM)
M0R2B7 and related entries (UniProt P28340)	1.01 ± 0.034	0.972 ± 0.068
L0R819 (UniProt Q9NWL6)	1 ± 0.026	1.01 ± 0.062
POLR1C (UniProt O15160)	1.02 ± 0.028	1 ± 0.029
UniProt O15260 and related entries	1.03 ± 0.042	0.984 ± 0.021
UniProt O14787-2	1.05 ± 0.032	1.03 ± 0.025
CLIC1 (UniProt O00299)	1 ± 0.015	1.03 ± 0.028
K7EK07 and related entries (UniProt P84243+K7EK07)	1 ± 0.053	1.01 ± 0.031
AGPS (UniProt O00116)	1 ± 0.011	0.995 ± 0.011
UniProt O00506	1.025 ± 0.0073	1 ± 0.018
UniProt O43310 and related entries	1.03 ± 0.014	1.05 ± 0.034
UniProt O00762 and related entries	1.02 ± 0.02	1.02 ± 0.029
GAK (UniProt O14976)	0.9858 ± 0.006	0.9709 ± 0.0091
UniProt O15226 and related entries	1.01 ± 0.021	1.02 ± 0.024
UniProt O15439 and related entries	0.994 ± 0.01	0.964 ± 0.027
PFAS (UniProt O15067)	1.002 ± 0.009	1.003 ± 0.0034
UniProt O15234 and related entries	0.985 ± 0.03	1.03 ± 0.052
CHMP2A (UniProt O43633)	0.975 ± 0.03	0.994 ± 0.024
UniProt O15391	1.04 ± 0.012	1.07 ± 0.016
PRMT5 (UniProt O14744)	0.993 ± 0.025	0.967 ± 0.059
UniProt O43852 and related entries	0.955 ± 0.022	1.01 ± 0.034
UniProt O43159	1.015 ± 0.0095	1.01 ± 0.016
M0QWZ7 and related entries (UniProt Q9NP81)	1.03 ± 0.033	0.996 ± 0.015
UniProt O43379-4|O43379	1 ± 0.024	1 ± 0.018

Exported in CSV form: part of the list above
Target,NP40-soluble protein abundance (concentration: 0.1mM),NP40-soluble protein abundance (concentration: 0.5mM)
UniProt O14787-2,1.05 ± 0.032,1.03 ± 0.025
UniProt O15226 and related entries,1.01 ± 0.021,1.02 ± 0.024

Continuation:

Target	NP40-soluble protein abundance (concentration: 0.1mM)	NP40-soluble protein abundance (concentration: 0.5mM)
SCAMP2 (UniProt O15127)	0.9683 ± 0.0016	0.99 ± 0.011
K7ERT1 and related entries (UniProt O00273)	1.01 ± 0.035	1 ± 0.022
UniProt O00522 and related entries	0.997 ± 0.013	0.995 ± 0.026
NPC1 (UniProt O15118)	1.01 ± 0.026	0.989 ± 0.012
UniProt O14936 and related entries	0.986 ± 0.019	0.986 ± 0.047
UniProt O00291 and related entries	1.03 ± 0.012	1 ± 0.031
UniProt O14647 and related entries	0.9867 ± 0.0055	1.08 ± 0.047
GTPBP1 (UniProt O00178)	0.973 ± 0.015	1.01 ± 0.016
K7ERP1 and related entries (UniProt Q9GZN7)	0.972 ± 0.043	1 ± 0.016
UniProt O14617 and related entries	0.9942 ± 0.0039	1.02 ± 0.012
K7EM18 and related entries (UniProt P41567)	1.04 ± 0.016	1.08 ± 0.096
UniProt O14920	1.02 ± 0.017	1.01 ± 0.024
DAPK3 (UniProt O43293)	1.02 ± 0.011	0.976 ± 0.018
UniProt O43504	1.03 ± 0.028	1.07 ± 0.077
UniProt O43422	0.986 ± 0.016	0.988 ± 0.015
K7EK78 and related entries (UniProt Q86Y39+K7EQ77+K7EP35+K7EMT4+K7EK78)	0.9955 ± 0.0092	1 ± 0.022
UniProt O00567	1.03 ± 0.013	1.04 ± 0.015
WASL (UniProt O00401)	0.9955 ± 0.0037	0.9895 ± 0.0082
PDLIM1 (UniProt O00151)	0.973 ± 0.016	0.995 ± 0.043
ARPC2 (UniProt O15144)	1.017 ± 0.0072	1.02 ± 0.065
K7EPJ5 and related entries (UniProt O60291)	0.995 ± 0.021	1.02 ± 0.047
UniProt O00154-4|O00154-7|K7EKP8	1.01 ± 0.025	1.02 ± 0.017
